These are yes or no findings as the source states them, for the method shown. Some results given as binding are weak or reduced against the parent protein; the word gives no strength.

The chains behind the UniProt entries cited, without tags or fusion partners. Residues count along the entry.
UniProt P35968, residues 20-764: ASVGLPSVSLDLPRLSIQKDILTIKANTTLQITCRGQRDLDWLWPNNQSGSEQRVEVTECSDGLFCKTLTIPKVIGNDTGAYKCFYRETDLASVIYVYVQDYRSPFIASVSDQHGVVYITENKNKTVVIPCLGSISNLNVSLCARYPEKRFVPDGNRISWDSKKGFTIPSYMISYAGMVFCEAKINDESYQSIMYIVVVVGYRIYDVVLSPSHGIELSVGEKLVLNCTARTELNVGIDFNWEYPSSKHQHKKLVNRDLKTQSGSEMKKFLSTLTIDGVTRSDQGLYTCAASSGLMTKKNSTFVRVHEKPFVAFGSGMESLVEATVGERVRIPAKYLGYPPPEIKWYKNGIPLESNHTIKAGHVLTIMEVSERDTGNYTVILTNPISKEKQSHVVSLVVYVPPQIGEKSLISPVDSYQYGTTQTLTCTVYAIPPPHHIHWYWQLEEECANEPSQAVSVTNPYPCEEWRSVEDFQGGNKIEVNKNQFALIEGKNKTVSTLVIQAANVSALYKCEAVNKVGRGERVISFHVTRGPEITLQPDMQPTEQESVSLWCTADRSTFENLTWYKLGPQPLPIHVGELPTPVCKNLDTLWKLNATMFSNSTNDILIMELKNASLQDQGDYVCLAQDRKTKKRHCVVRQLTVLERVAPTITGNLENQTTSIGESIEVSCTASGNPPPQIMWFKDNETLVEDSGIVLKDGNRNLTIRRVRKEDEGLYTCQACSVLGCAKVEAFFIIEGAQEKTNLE

For the assay, the target named is recombinant VEGFR2 receptor (UniProt P35968). Description: indirect ELISA, recombinant receptor coated, anti-c-myc HRP. A general note: In an ELISA, binding on a coated surface is turned into a signal by an enzyme label.

B1: VEGF-15.2 (BsAb targeting VEGFR2) (other)
chain: HHHHHHEVVKFMDVYQRSYCHPIETLVDIFQEYPDEIEYIFKPSCVPLMRCGGCCNDEGLECVPTEESNITMQIMRIKPHQGQHIGEMSFLQHNKCECRPKKDGSTSGSGKSSEGKGEVVKFMDVYQRSYCHPIETLVDIFQEYPDEIEYIFKPSCVPLMRCGGCCNDEGLECVPTEESNITMQIMRIKPHQGQHIGEMSFLQHNKCECRPKKDSGGGGSEVKLEESGGGLVQPGGSMKLSCVASGFTFSNYWMNWVRQSPEKGLEWVTEIRSKSNNYATHYAESVKGRFTISRDDSKGSVYLQMNNLRAEDTGIYYCSNRYYWGQGTLVTVSAGGGGSGGGGSGGGGSDIVMTQSHKFMSTSVRDRVTITCKASQDVNTSVAWYQQKPGQSPKLVIYWASTRHTGVPDRFTGSGSGTDFTLTISNVQSEDLADYFCLQYINYPYTFGGGTKLEIKEQKLISEEDLN
Take B1: the binding result is listed as “binds”.

The values above are taken from patent US20180016352A1 (published 2018).
